In the supplement of paper PMC8728848:
The other results are listed elsewhere or left out.

Legend:
Test in all cases: glycan array binding signal (z-score within array); higher = stronger binding
Conditions in all cases: glycan notation: IUPAC condensed, linker removed
[1] = biological target: Neu5Ac(a2-3)Gal(b1-3)GlcNAc(b1-2)Man
Procedure, shortened: (§1)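 Negative Z-scores can be read as non-binding. The Z-score is calculated within each array and then averaged across arrays of one protein sequence at different concentrations or buffers and across linkers. Arrays, 3228 in all, were curated from the Consortium for Functional Glycomics database and kept only where the protein sequence was available.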

[2] = biological target: Neu5Ac(a2-3)Gal(b1-3)GlcNAc(b1-2)Man(a1-3)[GlcNAc(b1-4)][Neu5Ac(a2-3)Gal(b1-3)GlcNAc(b1-2)Man(a1-6)]Man(b1-4)GlcNAc(b1-4)GlcNAc
Procedure, shortened: as §1

[3] = biological target: Neu5Ac(a2-3)Gal(b1-3)GlcNAc(b1-2)Man(a1-3)[Neu5Ac(a2-3)Gal(b1-3)GlcNAc(b1-2)Man(a1-6)]Man(b1-4)GlcNAc(b1-4)GlcNAc
Procedure, shortened: as §1

[4] = biological target: Neu5Ac(a2-3)Gal(b1-3)GlcNAc(b1-2)[Neu5Ac(a2-3)Gal(b1-3)GlcNAc(b1-4)]Man(a1-6)[Neu5Ac(a2-3)Gal(b1-3)GlcNAc(b1-2)Man(a1-3)]Man(b1-4)GlcNAc(b1-4)GlcNAc
Procedure, shortened: as §1

[5] = biological target: Neu5Ac(a2-3)Gal(b1-3)GlcNAc(b1-3)Gal(b1-3)GlcNAc
Procedure, shortened: as §1

[6] = biological target: Neu5Ac(a2-3)Gal(b1-3)GlcNAc(b1-3)Gal(b1-4)GlcNAc
Procedure, shortened: as §1

[7] = biological target: Neu5Ac(a2-3)Gal(b1-3)GlcNAc(b1-3)GalNAc
Procedure, shortened: as §1

[8] = biological target: Neu5Ac(a2-3)Gal(b1-3)GlcNAc(b1-6)GalNAc
Procedure, shortened: as §1

[9] = biological target: Neu5Ac(a2-3)Gal(b1-3)GlcNAc6S
Procedure, shortened: as §1

[10] = biological target: Neu5Ac(a2-3)Gal(b1-3)[Fuc(a1-4)]GlcNAc
Procedure, shortened: as §1

[11] = biological target: Neu5Ac(a2-3)Gal(b1-3)[Fuc(a1-4)]GlcNAc(b1-3)Gal(b1-3)[Fuc(a1-4)]GlcNAc
Procedure, shortened: as §1

[12] = biological target: Neu5Ac(a2-3)Gal(b1-3)[Fuc(a1-4)]GlcNAc(b1-3)Gal(b1-4)[Fuc(a1-3)]GlcNAc
Procedure, shortened: as §1

[13] = biological target: Neu5Ac(a2-3)Gal(b1-3)[GlcNAc(b1-6)]GalNAc
Procedure, shortened: as §1

[14] = biological target: Neu5Ac(a2-3)Gal(b1-3)[Neu5Ac(a2-6)]GalNAc
Procedure, shortened: as §1

[15] = biological target: Neu5Ac(a2-3)Gal(b1-3)[Neu5Ac(a2-6)]GlcNAc(b1-3)[Fuc(a1-3)[Gal(b1-4)]GlcNAc(b1-6)]Gal(b1-4)Glc
Procedure, shortened: as §1

[16] = biological target: Neu5Ac(a2-3)Gal(b1-3)]Neu5Ac(a2-3)Gal(b1-4)]GlcNAc
Procedure, shortened: as §1

Neu5Ac(a2-3)Gal(b1-4)Glc = biological target: Neu5Ac(a2-3)Gal(b1-4)Glc
Procedure, shortened: as §1

[17] = biological target: Neu5Ac(a2-3)Gal(b1-4)GlcNAc
Procedure, shortened: as §1

[18] = biological target: Neu5Ac(a2-3)Gal(b1-4)GlcNAc(b1-2)Man
Procedure, shortened: as §1

[19] = biological target: Neu5Ac(a2-3)Gal(b1-4)GlcNAc(b1-2)Man(a1-3)[GlcNAc(b1-4)][Neu5Ac(a2-3)Gal(b1-4)GlcNAc(b1-2)Man(a1-6)]Man(b1-4)GlcNAc(b1-4)GlcNAc
Procedure, shortened: as §1

[20] = biological target: Neu5Ac(a2-3)Gal(b1-4)GlcNAc(b1-2)Man(a1-3)[Neu5Ac(a2-3)Gal(b1-4)GlcNAc(b1-2)Man(a1-6)]Man(b1-4)GlcNAc(b1-4)GlcNAc
Procedure, shortened: as §1

[21] = biological target: Neu5Ac(a2-3)Gal(b1-4)GlcNAc(b1-2)Man(a1-3)[Neu5Ac(a2-3)Gal(b1-4)GlcNAc(b1-2)Man(a1-6)]Man(b1-4)GlcNAc(b1-4)[Fuc(a1-6)]GlcNAc
Procedure, shortened: as §1

[22] = biological target: Neu5Ac(a2-3)Gal(b1-4)GlcNAc(b1-2)Man(a1-3)[Neu5Ac(a2-6)Gal(b1-4)GlcNAc(b1-2)Man(a1-6)]Man(b1-4)GlcNAc(b1-4)GlcNAc
Procedure, shortened: as §1

[23] = biological target: Neu5Ac(a2-3)Gal(b1-4)GlcNAc(b1-2)[Neu5Ac(a2-3)Gal(b1-4)GlcNAc(b1-4)]Man(a1-3)[GlcNAc(b1-4)][Neu5Ac(a2-3)Gal(b1-4)GlcNAc(b1-2)[Neu5Ac(a2-3)Gal(b1-4)GlcNAc(b1-6)]Man(a1-6)]Man(b1-4)GlcNAc(b1-4)GlcNAc
Procedure, shortened: as §1

[24] = biological target: Neu5Ac(a2-3)Gal(b1-4)GlcNAc(b1-2)[Neu5Ac(a2-3)Gal(b1-4)GlcNAc(b1-4)]Man(a1-3)[GlcNAc(b1-4)][Neu5Ac(a2-3)Gal(b1-4)GlcNAc(b1-4)Man(a1-6)]Man(b1-4)GlcNAc(b1-4)GlcNAc
Procedure, shortened: as §1

[25] = biological target: Neu5Ac(a2-3)Gal(b1-4)GlcNAc(b1-2)[Neu5Ac(a2-3)Gal(b1-4)GlcNAc(b1-6)]Man(a1-6)[Neu5Ac(a2-3)Gal(b1-4)GlcNAc(b1-2)Man(a1-3)][GlcNAc(b1-4)]Man(b1-4)GlcNAc(b1-4)GlcNAc
Procedure, shortened: as §1

[26] = biological target: Neu5Ac(a2-3)Gal(b1-4)GlcNAc(b1-3)Gal
Procedure, shortened: as §1

[27] = biological target: Neu5Ac(a2-3)Gal(b1-4)GlcNAc(b1-3)Gal(b1-3)GlcNAc
Procedure, shortened: as §1

[28] = biological target: Neu5Ac(a2-3)Gal(b1-4)GlcNAc(b1-3)Gal(b1-4)GlcNAc
Procedure, shortened: as §1

[29] = biological target: Neu5Ac(a2-3)Gal(b1-4)GlcNAc(b1-3)Gal(b1-4)GlcNAc(b1-2)Man(a1-3)[Neu5Ac(a2-3)Gal(b1-4)GlcNAc(b1-3)Gal(b1-4)GlcNAc(b1-2)Man(a1-6)]Man(b1-4)GlcNAc(b1-4)GlcNAc
Procedure, shortened: as §1

[30] = biological target: Neu5Ac(a2-3)Gal(b1-4)GlcNAc(b1-3)Gal(b1-4)GlcNAc(b1-3)Gal(b1-4)GlcNAc
Procedure, shortened: as §1

[31] = biological target: Neu5Ac(a2-3)Gal(b1-4)GlcNAc(b1-3)Gal(b1-4)GlcNAc(b1-3)Gal(b1-4)GlcNAc(b1-2)Man(a1-3)[Neu5Ac(a2-3)Gal(b1-4)GlcNAc(b1-3)Gal(b1-4)GlcNAc(b1-3)Gal(b1-4)GlcNAc(b1-2)Man(a1-6)]GalNAc
Procedure, shortened: as §1

[32] = biological target: Neu5Ac(a2-3)Gal(b1-4)GlcNAc(b1-3)Gal(b1-4)GlcNAc(b1-3)GalNAc
Procedure, shortened: as §1

[33] = biological target: Neu5Ac(a2-3)Gal(b1-4)GlcNAc(b1-3)Gal(b1-4)GlcNAc(b1-3)[Neu5Ac(a2-3)Gal(b1-4)GlcNAc(b1-3)Gal(b1-4)GlcNAc(b1-6)]GalNAc
Procedure, shortened: as §1

[34] = biological target: Neu5Ac(a2-3)Gal(b1-4)GlcNAc(b1-3)Gal(b1-4)GlcNAc(b1-6)[Gal(b1-3)]GalNAc
Procedure, shortened: as §1

[35] = biological target: Neu5Ac(a2-3)Gal(b1-4)GlcNAc(b1-3)Gal(b1-4)[Fuc(a1-3)]GlcNAc
Procedure, shortened: as §1

[36] = biological target: Neu5Ac(a2-3)Gal(b1-4)GlcNAc(b1-3)GalNAc
Procedure, shortened: as §1

[37] = biological target: Neu5Ac(a2-3)Gal(b1-4)GlcNAc(b1-3)[Neu5Ac(a2-3)Gal(b1-4)GlcNAc(b1-6)]GalNAc
Procedure, shortened: as §1

B1: OS9 (Arabidopsis thaliana) (protein)
chain: MRGSHHHHHHGMASMTGGQQMGRDLYDDDDKSRLQIFPAHLVGTFSRNNREPKYKIEFLPEDSPFHPGDNLESMVMLDKHGNRFLCYLPKEEKATSGWTSSQQNISTVMMETQQLVKLKTPDELLQPLSEKCLFRQEGWWSYEFCHQKYVRQLHVEDENKIVQEFFLGTFDPEATAAFNQTVSDASTDASQRYHSHVYTNGTTCDLTGSPREVEVRFVCAETRAMVTSITELSTCKYALTVQCPTLCKHPLFQLEKPVSHTIHCNAIPVEEDATRNKEEQAVDESPKMIADS
With B1 as the binder, how does the “glycan array binding signal (z-score)” value [1] read?
The value was 0.959.

And the “glycan array binding signal (z-score)” value [2]?
Its value is -0.217.

And the “glycan array binding signal (z-score)” value [3]?
Its value is -0.881.

And the “glycan array binding signal (z-score)” value [4]?
Its value is -1.29.

And the “glycan array binding signal (z-score)” value [5]?
Its value is -0.798.

And the “glycan array binding signal (z-score)” value [6]?
The value was 0.479.

What about the “glycan array binding signal (z-score)” value [7] of the same binder?
The value was 0.474.

And the “glycan array binding signal (z-score)” value [8]?
The value was 0.504.

And the “glycan array binding signal (z-score)” value [9]?
The value was -0.171.

What about the “glycan array binding signal (z-score)” value [10] of the same binder?
Its value is -0.289.

And the “glycan array binding signal (z-score)” value [11]?
The value was 2.

What about the “glycan array binding signal (z-score)” value [12] of the same binder?
The value was 1.08.

What about the “glycan array binding signal (z-score)” value [13] of the same binder?
Its value is 1.3.

What about the “glycan array binding signal (z-score)” value [14] of the same binder?
Its value is -0.173.

And the “glycan array binding signal (z-score)” value [15]?
Its value is -0.879.

And the “glycan array binding signal (z-score)” value [16]?
Its value is -1.09.

What about the “glycan array binding signal (z-score)” value (Neu5Ac(a2-3)Gal(b1-4)Glc) of the same binder?
The value was 0.386.

And the “glycan array binding signal (z-score)” value [17]?
Its value is 0.28.

What about the “glycan array binding signal (z-score)” value [18] of the same binder?
Its value is 0.588.

And the “glycan array binding signal (z-score)” value [19]?
Its value is 0.725.

And the “glycan array binding signal (z-score)” value [20]?
The value was 1.24.

What about the “glycan array binding signal (z-score)” value [21] of the same binder?
Its value is -0.563.

What about the “glycan array binding signal (z-score)” value [22] of the same binder?
Its value is 0.387.

What about the “glycan array binding signal (z-score)” value [23] of the same binder?
Its value is 1.26.

What about the “glycan array binding signal (z-score)” value [24] of the same binder?
Its value is -0.879.

What about the “glycan array binding signal (z-score)” value [25] of the same binder?
Its value is -0.513.

What about the “glycan array binding signal (z-score)” value [26] of the same binder?
The value was -0.825.

And the “glycan array binding signal (z-score)” value [27]?
The value was -0.233.

What about the “glycan array binding signal (z-score)” value [28] of the same binder?
The value was 1.85.

What about the “glycan array binding signal (z-score)” value [29] of the same binder?
The value was -0.58.

And the “glycan array binding signal (z-score)” value [30]?
The value was 0.726.

And the “glycan array binding signal (z-score)” value [31]?
Its value is -0.723.

And the “glycan array binding signal (z-score)” value [32]?
The value was -1.03.

What about the “glycan array binding signal (z-score)” value [33] of the same binder?
The value was -0.357.

And the “glycan array binding signal (z-score)” value [34]?
Its value is -0.084.

What about the “glycan array binding signal (z-score)” value [35] of the same binder?
Its value is 0.952.

What about the “glycan array binding signal (z-score)” value [36] of the same binder?
The value was 1.69.

What about the “glycan array binding signal (z-score)” value [37] of the same binder?
Its value is 0.13.
